Source: PubChem BioAssay AID588590 (National Center for Advancing Translational Sciences (NCATS), 2011)
Among all 390,000 compounds or so, about 4,000 (1%) were called active. Inconclusive means that the source gave no clear call. Such entries were picked first, then a sample of the others. Calls come from the whole dose curve; as a rule, active = well fitted inhibition curve with a large enough effect; inconclusive = small, poorly fitted or top-dose-only effect, or another doubt; inactive = no such curve, though single readings can be large or run the other way. Potencies of inconclusive entries are doubtful fits and often do not repeat.

By UniProt entry, the sequences of proteins in these tests, tags left out. Where a name states a change or a piece, a line headed by the entry shows the natural chain unless it says otherwise.
UniProt Q9UNA4: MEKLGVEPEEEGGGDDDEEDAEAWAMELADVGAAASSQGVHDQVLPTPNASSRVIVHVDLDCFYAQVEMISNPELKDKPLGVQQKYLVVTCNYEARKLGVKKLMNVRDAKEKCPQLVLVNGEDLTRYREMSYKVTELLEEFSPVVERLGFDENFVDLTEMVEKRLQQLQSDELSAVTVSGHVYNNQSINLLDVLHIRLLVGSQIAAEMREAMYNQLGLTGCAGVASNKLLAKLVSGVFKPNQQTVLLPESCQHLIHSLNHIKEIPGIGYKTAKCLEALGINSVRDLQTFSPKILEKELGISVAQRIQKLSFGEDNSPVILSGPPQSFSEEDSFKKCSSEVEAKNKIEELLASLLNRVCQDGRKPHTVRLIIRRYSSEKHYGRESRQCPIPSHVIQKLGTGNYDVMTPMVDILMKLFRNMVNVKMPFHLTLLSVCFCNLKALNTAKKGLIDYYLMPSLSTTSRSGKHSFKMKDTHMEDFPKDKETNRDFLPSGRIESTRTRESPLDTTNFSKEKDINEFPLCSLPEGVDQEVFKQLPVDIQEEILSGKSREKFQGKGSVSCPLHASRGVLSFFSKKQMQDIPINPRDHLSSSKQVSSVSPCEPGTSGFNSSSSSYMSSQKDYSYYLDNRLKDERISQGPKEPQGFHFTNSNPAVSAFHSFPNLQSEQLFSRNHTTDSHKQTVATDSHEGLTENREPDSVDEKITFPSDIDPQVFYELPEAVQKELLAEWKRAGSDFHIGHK

target: DNA polymerase iota (Homo sapiens) (UniProt Q9UNA4); assay: qHTS for Inhibitors of Polymerase Iota; details: Pol iota fluorescent replication assay, 10 min; series mostly up to 115 µM
How it was run: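 Pol iota at 10 nM preincubated 15 min with compounds at room temperature; reaction started with fluorescent substrate, 50 nM final. Fluorescence read kinetically at 0 and 10 min; buffer-only wells as negative control.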
Potency is the fitted concentration of half-maximal effect.

Question: How did the Potency turn out when `Cc1cc(=O)n(CC(=O)NC(C)c2ccccc2)c2c1c(C)nn2-c1cccc(F)c1` (stereo not given) was run?
Answer: Its Potency is inconclusive: 63.1 µM [inhibitor, partial curve, poor fit].

Question: With `O=[N+]([O-])c1ccc(Cl)c(S(=O)(=O)Nc2cccc(S(=O)(=O)NC3=NCCC3)c2)c1` as the molecule, how does the Potency read?
Answer: Its Potency is inconclusive: 22.4 µM [inhibitor, partial curve].

Question: Which Potency does the source give for `CCn1c(SCC(=O)Nc2ccc(N3CCOCC3)cc2)nnc1C1CC1` here?
Answer: The Potency was “inactive”.

Question: Which Potency does the source give for `COC(=O)c1cc2occc2n1CC(=O)Nc1ccc(C)cc1Cl` here?
Answer: Its Potency is “inactive”.

Question: `COC(=O)CNC(=O)c1ccccc1` was tested. Which Potency did it give?
Answer: The Potency was inconclusive: 89.1 µM [inhibitor, single point].

Question: For `CCn1cc(-c2cc(C(=O)O)c3ccccc3n2)cn1`, which Potency is on record?
Answer: Its Potency is “inactive”.

Question: How did the Potency turn out when `COC(=O)c1cc(NC(=O)c2sc3ccccc3c2Cl)cc(C(=O)OC)c1` was run?
Answer: Its Potency is “inactive”.

Question: For `CN(C)/[N+]([O-])=N/Oc1ccc([N+](=O)[O-])cn1`, which Potency is on record?
Answer: The Potency was “inactive”.

Question: Which Potency does the source give for `COc1cc(-c2onc3ccc(Br)cc23)cc(OC)c1OC` here?
Answer: The Potency was inconclusive: 70.8 µM [inhibitor, single point].

Question: How did the Potency turn out when `COc1ccc(-n2c(SCC(=O)Nc3cccc4ccccc34)nc(O)cc2=O)cc1` was run?
Answer: The Potency was inconclusive: 28.2 µM [inhibitor, single point].

Question: Which Potency does the source give for `CCOC(=O)C1CCCN(C2=NC(=O)/C(=C/c3ccc(N(C)C)cc3)S2)C1` (stereo not given) here?
Answer: Its Potency is inconclusive: 39.8 µM [inhibitor, partial curve, poor fit].

Question: Which Potency does the source give for `COc1ccc(O)c(/C=N/NC(=O)CSc2nnc(C)n2-c2ccccc2)c1` here?
Answer: The Potency was inconclusive: 89.1 µM [inhibitor, partial curve, poor fit].

Question: `CCOC(=O)c1c(NC(=O)CSc2nc3cc(Cl)ccc3c(=O)n2Cc2ccco2)sc(C(=O)N(C)C)c1C` was tested. Which Potency did it give?
Answer: Its Potency is inconclusive: 17.8 µM [inhibitor, full curve, poor fit].

Question: For `COc1ccc(C)cc1NC(=O)C(c1ccccc1)N1CCN(CC(=O)NC2CC2)CC1` (stereo not given), which Potency is on record?
Answer: Its Potency is inconclusive: 100 µM [inhibitor, single point].

Question: `Cc1ccccc1-c1nnc(SCC(=O)Nc2c(C)n(C)n(-c3ccccc3)c2=O)o1` was tested. Which Potency did it give?
Answer: The Potency was inconclusive: 89.1 µM [inhibitor, single point].

Question: With `O=C1CCC/C(=N/Nc2ccc(Cl)cc2)C1` as the molecule, how does the Potency read?
Answer: Its Potency is inconclusive: 22.4 µM [inhibitor, single point].

Question: For `Cc1cccc(Oc2ccccc2NS(=O)(=O)c2ccc(CCC(=O)O)cc2)c1`, which Potency is on record?
Answer: The Potency was inconclusive: 17.8 µM [inhibitor, partial curve, poor fit].

Question: How did the Potency turn out when `O=C(COc1ccc(Cl)cc1Cl)Nc1ccc(C(=O)OC2CCCCC2)cc1` was run?
Answer: The Potency was “inactive”.

Question: For `CC(CCc1ccccc1)NC(=O)C1CCCN(c2nnc(-n3cccc3)s2)C1` (stereo not given), which Potency is on record?
Answer: Its Potency is inconclusive: 35.5 µM [inhibitor, partial curve, poor fit].

Question: With `CCOc1ccc(NC(=O)Nc2nc3ccc(S(C)(=O)=O)cc3s2)cc1` as the molecule, how does the Potency read?
Answer: Its Potency is inconclusive: 25.1 µM [inhibitor, partial curve, poor fit].

Question: For `COc1cccc(N2CCN(CC(=O)Nc3nnc(-c4ccccc4)s3)CC2)c1`, which Potency is on record?
Answer: Its Potency is inconclusive: 11.2 µM [inhibitor, full curve, poor fit].

Question: With `COc1cc2c(NC3CCN(C(C)C)CC3)nc(N3CCCN(C)CC3)nc2cc1OCCCN1CCCC1` as the molecule, how does the Potency read?
Answer: Its Potency is inconclusive: 12.6 µM [inhibitor, full curve, poor fit].

Question: How did the Potency turn out when `CCOC(=O)c1[nH]c(C)c(/C(O)=C2\C(=O)C(=O)N(CCN3CCOCC3)C2c2ccco2)c1C` (stereo not given) was run?
Answer: Its Potency is “inactive”.

Question: How did the Potency turn out when `COc1ccc(/C=C/C(=O)O)cc1S(=O)(=O)N1CCc2ccccc2C1` was run?
Answer: Its Potency is inconclusive: 14.1 µM [inhibitor, partial curve].

Question: How did the Potency turn out when `NC(=O)c1ccc2c(=O)c(O)c(-c3cc(Cl)c(N)c(Cl)c3)[nH]c2c1` was run?
Answer: The Potency was inconclusive: 14.1 µM [inhibitor, full curve, poor fit].

Question: For `Cc1cccc(N2CCN(C(=O)c3ccc4c(c3)CCN4S(=O)(=O)c3ccccc3)CC2)c1C`, which Potency is on record?
Answer: Its Potency is inconclusive: 89.1 µM [inhibitor, single point].

Question: For `COc1cc(-c2cc(=O)c3c(O)c(OC)c(OC)cc3o2)cc(OC)c1O`, which Potency is on record?
Answer: Its Potency is inconclusive: 79.4 µM [inhibitor, partial curve, poor fit].

Question: `Cc1ccc(Oc2nc3ccccc3n3c(C)nnc23)c(C)c1` was tested. Which Potency did it give?
Answer: Its Potency is inconclusive: 100 µM [inhibitor, single point].

Question: With `CCn1c(SCC(=O)N2CCc3ccccc32)nc2c(c1=O)SC(C)C2` (stereo not given) as the molecule, how does the Potency read?
Answer: Its Potency is inconclusive: 10 µM [inhibitor, full curve, poor fit].

Question: How did the Potency turn out when `COc1ccc(N(C)C(=O)c2oc(=O)c3ccccc3c2-c2ccccc2)c(OC)c1` was run?
Answer: Its Potency is “inactive”.

Question: With `OC(c1cc(-c2ccc(C(F)(F)F)cc2)nc(C(F)(F)F)c1)C1CCCCN1` (stereo not given) as the molecule, how does the Potency read?
Answer: The Potency was inconclusive: 35.5 µM [inhibitor, partial curve, poor fit].

Question: How did the Potency turn out when `CCc1sc(N2C(=O)C3C4CCC(C4=C(C)C)C3C2=O)nc1-c1ccccc1` (stereo not given) was run?
Answer: Its Potency is inconclusive: 10 µM [inhibitor, partial curve, poor fit].

Question: How did the Potency turn out when `O=C(Nc1ccccc1)C(Cl)C(=O)c1ccccc1` (stereo not given) was run?
Answer: The Potency was inconclusive: 28.2 µM [inhibitor, partial curve, poor fit].

Question: Which Potency does the source give for `c1ccc2c(OCCCCN3CCOCC3)cccc2c1` here?
Answer: Its Potency is inconclusive: 89.1 µM [inhibitor, partial curve, poor fit].

Question: For `CC(C)OCCCn1c(=N)c(C(N)=S)cc2c(=O)n3ccccc3nc21`, which Potency is on record?
Answer: Its Potency is inconclusive: 25.1 µM [inhibitor, single point].

Question: How did the Potency turn out when `CCOC(=O)C1=C(C)N(C)C(=O)NC1c1cccc2ccccc12` (stereo not given) was run?
Answer: Its Potency is inconclusive: 44.7 µM [inhibitor, single point].

Question: Which Potency does the source give for `Cc1ccc(Cl)cc1N1CCN(C(=O)c2cn(C)c3ccc(S(=O)(=O)N4CCCC4)cc3c2=O)CC1` here?
Answer: The Potency was “inactive”.

Question: For `Cc1sc2nc(-c3ccco3)oc(=O)c2c1C`, which Potency is on record?
Answer: The Potency was inconclusive: 31.6 µM [inhibitor, partial curve].

Question: For `CC(=O)N(\C=C/C=C/C=C1\Sc2ccccc2C1=O)c1ccccc1`, which Potency is on record?
Answer: Its Potency is inconclusive: 14.1 µM [inhibitor, full curve, poor fit].

Question: With `Clc1ccc(SCNc2ccccc2Cl)cc1` as the molecule, how does the Potency read?
Answer: Its Potency is inconclusive: 4.47 µM [inhibitor, single point].

Question: How did the Potency turn out when `O=C(O)Cc1c[nH]c2cccc(O)c12` was run?
Answer: Its Potency is inconclusive: 20 µM [inhibitor, full curve, poor fit].

Question: Which Potency does the source give for `COc1ccc2oc(=N)c(C(=O)Nc3ccc(Br)cc3)cc2c1` here?
Answer: The Potency was inconclusive: 17.8 µM [inhibitor, full curve, poor fit].

Question: With `COCC(=O)Nc1sc2c(c1C(=O)OC)CCCC2` as the molecule, how does the Potency read?
Answer: Its Potency is “inactive”.

Question: `COc1cccc(NC(=O)CN2C(=O)C3(SCC(=O)N3c3cc(C)cc(C)c3)c3ccccc32)c1` (stereo not given) was tested. Which Potency did it give?
Answer: Its Potency is “inactive”.

Question: Which Potency does the source give for `CCOc1cc(-c2sc(Nc3ccccc3)n[n+]2-c2ccc(F)cc2)ccc1OC` here?
Answer: The Potency was inconclusive: 28.2 µM [inhibitor, partial curve, poor fit].

Question: `CCc1ccc(CNC(=O)c2ccc(CS(=O)(=O)Cc3ccccc3C)o2)cc1` was tested. Which Potency did it give?
Answer: The Potency was “inactive”.

Question: How did the Potency turn out when `COc1ccc2cc(C(c3nnnn3CCc3ccccc3)N3CCCC(C)C3)c(=O)[nH]c2c1` (stereo not given) was run?
Answer: The Potency was inconclusive: 100 µM [inhibitor, partial curve, poor fit].

Question: Which Potency does the source give for `CCN(CC(=O)Nc1ccc(NC(C)=O)cc1)C(=O)CSc1nnc(-c2ccco2)n1CC` here?
Answer: The Potency was “inactive”.

Question: `Cc1ccc(S(=O)(=O)c2c(C)cc(C)nc2Cl)c(C)c1` was tested. Which Potency did it give?
Answer: Its Potency is “inactive”.

Question: `COC(=O)c1cccnc1-n1c(=O)c2cccnc2n(CC(=O)Nc2cccc(C(F)(F)F)c2)c1=O` was tested. Which Potency did it give?
Answer: The Potency was “inactive”.

Question: Which Potency does the source give for `COc1ccc(S(=O)(=O)Nc2cc(SCC(=O)O)c(O)c3ccccc23)cc1` here?
Answer: Its Potency is active: 3.98 µM.

Question: `O=C(CNC(=O)C1CCCCC1)OCC(=O)c1ccc(F)cc1` was tested. Which Potency did it give?
Answer: The Potency was inconclusive: 8.91 µM [inhibitor, single point].

Question: With `CC1CCN(S(=O)(=O)c2ccc3nc(N4CCN(c5ccccc5F)CC4)ccc3c2)CC1` as the molecule, how does the Potency read?
Answer: The Potency was “inactive”.

Question: With `COc1ccc(/C=N/OCC(=O)Nc2cc(C)on2)cc1OC` as the molecule, how does the Potency read?
Answer: Its Potency is “inactive”.

Question: How did the Potency turn out when `CN1C(=O)/C(=C/c2ccc(O)c([N+](=O)[O-])c2)NC1=S` was run?
Answer: Its Potency is “inactive”.

Question: For `COc1cccc(CNC(=O)c2ccc(Cl)c(S(=O)(=O)N3CCOCC3)c2)c1`, which Potency is on record?
Answer: Its Potency is inconclusive: 4.47 µM [inhibitor, partial curve, poor fit].

Question: For `COc1cc(C)ccc1OCCSc1nnc(-c2cccs2)o1`, which Potency is on record?
Answer: Its Potency is inconclusive: 89.1 µM [inhibitor, single point].

Question: How did the Potency turn out when `COc1ccc(-c2[nH]c(-c3ccc(C(=O)O)cc3)nc2-c2ccccc2)cc1` was run?
Answer: Its Potency is “inactive”.

Question: How did the Potency turn out when `CCOC(=O)c1c(NC(=O)CN2CCN(c3ccc(Cl)cc3)CC2)sc(C)c1C` was run?
Answer: The Potency was inconclusive: 89.1 µM [inhibitor, single point].

Question: For `Nc1nc(-c2cccc(Br)c2)cs1`, which Potency is on record?
Answer: Its Potency is inconclusive: 79.4 µM [inhibitor, partial curve].

Question: For `COC(=O)CCC(=O)OC1(C)C(=O)C=C2C=C(C3CC3)N(CCc3ccccn3)C=C2C1=O` (stereo not given), which Potency is on record?
Answer: The Potency was inconclusive: 39.8 µM [inhibitor, single point].

Question: How did the Potency turn out when `Cc1ccccc1OCC(=O)NCC(=O)OCC(=O)c1ccc(Br)cc1` was run?
Answer: The Potency was “inactive”.

Question: `COc1ccc(-c2noc(CCC(=O)Nc3ccccc3Cl)n2)cc1OC` was tested. Which Potency did it give?
Answer: The Potency was inconclusive: 4.47 µM [inhibitor, full curve, poor fit].

Question: How did the Potency turn out when `CCc1ccccc1N(CC(=O)NCc1ccco1)C(=O)c1snc(C(N)=O)c1N` was run?
Answer: Its Potency is inconclusive: 14.1 µM [inhibitor, full curve, poor fit].

Question: How did the Potency turn out when `Cc1cc(NC(=O)c2ccc([N+](=O)[O-])o2)ccc1NC(=O)c1ccco1` was run?
Answer: The Potency was inconclusive: 79.4 µM [inhibitor, partial curve, poor fit].
